In brackets after ≈: the same amount, converted by molar mass.
Columns and labels:
[1] = system: p-PRAS40; conditions: MTD dose level; TRAP-stimulated platelets, relative to baseline, normalized to total PRAS40
[2] = 80 mg QD, n = 3
[3] = system: p-AKT; test: animal or person; conditions: Homo sapiens, read-out: IC50 for p-AKT (clinical PK/PD, plasma concentration)
[4] = in vivo
Source text: Descriptive statistics were used to summarize demographic data, other baseline characteristics, AEs, safety parameters, and tumor assessment data. […] All subjects who completed the study were included in the evaluation of PD/PK. […] The incidence of treatment-emergent adverse events and drug-related adverse events, respectively, was summarized by treatment in frequency tables using the CTCAE grade.

[5] = clinical; conditions: human, in vivo, 80 mg, geometric mean (%CV), 80 mg QD single dose, n = 3
[6] = system: p-AKT

NC(=O)c1ccc2nc(-c3ccc(C4(N)CCC4)cc3)c(-c3ccccc3)n2n1 [BAY 1125976]
Suppression of p-PRAS40 [1]: more than 30%
Increase of AUC after high-fat, high-calorie meal vs fasted [2]: 16%
Reduction of Cmax after high-fat, high-calorie meal vs fasted [2]: 27%
IC50 [3]: ~5 ng/mL (≈ 0.013 µM)
MTD in the QD schedule ([4]; human, po): 80 mg
Dose-limiting toxicity [4]: no dose-limiting toxicity was observed
Cmax ([5]; fasted condition (C1D1)): 0.0288 µg/mL
Cmax ([5]; fed condition (C1D-3)): 0.0211 µg/mL
Suppression of p-AKT ([6]; MTD dose level, TRAP-stimulated platelets, relative to baseline, normalized to total AKT): more than 70%
Time of transient maximum inhibition of AKT phosphorylation post-treatment ([6]; both dosing schedules): 4 h

Reference: article PMC6966663 (Cancers, 2019)
